Experimental data as given in patent US20050009052A1 (priority 2003, published 2005).

What was measured:
rlm1Δ/rlm1Δ strain [1] = experiment: Differential Tag Length Analysis (DTLA) of 11-strain mixed yeast culture with inhibitor; assay type: cell-based, Saccharomyces cerevisiae; details: rlm1Δ/rlm1Δ in mixed culture, 20 hours; staurosporine 1 μM, tunicamycin 0.4 μg/ml
Method: (§1) Strains, media and inhibitors.
(§2) Tag amplification and capillary electrophoresis. Oligonucleotides Fluor-1 (6-Fam-[…]) and Pho-1 (Phosphate-[…]) were used for the amplification of tag DNAs. PCR reactions were performed in 50 μl reaction volume containing the 2 primers at a final concentration of 1 μM each and 2.5 units of Stoffel fragment AmpliTaq DNA polymerase (Applied Biosystems, Foster City, Calif.). After an initial 2 min denaturing step at 94° C., the reactions underwent 30 amplification cycles (94° C., 30 sec; 60° C., 30 sec; 72° C., 30 sec with a 6 sec increase in extension time per cycle) followed by a post-amplification extension step (72° C., 10 min). As a template for the PCR reactions, 100 ng of plasmid DNA, 700 ng of genomic DNA (extracted from yeast strains using MasterPure Yeast DNA purification kit; Epicentre, Madison, Wis.), or an equivalent to 0.5 μl of saturated culture of yeast protoplasts (prepared by using lyticase) (see, e.g., Chen et al., Biotechniques 19:744-746 (1995)) was used. The PCR products were incubated with λ-exonuclease for 1 h at 37° C. and then purified using MinElute PCR purification kit (QIAGEN Inc., Valencia, Calif.). After 1 h digestion with EcoRI, the PCR products were again purified with the same kit and adjusted to 70% formamide and 1 mM EDTA and analyzed by capillary electrophoresis on ABI Prism 3700 DNA analyzer (Applied Biosystems, Foster City, Calif.) using 3700 POP-5 polymer.
(§3) Data analysis. To access the raw fluorescence data collected by ABI Prism 3700 DNA analyzer, a Visual Basic program was used that extracted the electropherogram values and converted them into a text file format. Peak quantitation was then performed using Caesar Workstation 5.0 (SciBridge Software, Los Angeles, Calif.). In the majority of cases, the relative representation of each tag in the PCR product was calculated by dividing the area under the corresponding tag peak by the sum of all tag peak areas. For the measurement of different input amounts of tag 42, the average peak area of the other 10 tags was first calculated. The area value of tag 42 was then divided by this averaged value to give normalized tag 42 area.

pdr5Δ/pdr5Δ strain [2] = experiment: as above; assay type: cell-based, Saccharomyces cerevisiae; details: pdr5Δ/pdr5Δ in mixed culture, 20 hours; staurosporine 1 μM
Method: as §1, §2, §3

gim4Δ/gim4Δ strain [3] = experiment: as above; assay type: cell-based, Saccharomyces cerevisiae; details: gim4Δ/gim4Δ in mixed culture, 20 hours; staurosporine 1 μM
Method: as §1, §2, §3

act1Δ/ACT1 strain = experiment: as above; assay type: cell-based, Saccharomyces cerevisiae; details: act1Δ/ACT1 in mixed culture, 20 hours; staurosporine 1 μM
Method: as §1, §2, §3

pkc1Δ/PKC1 strain = experiment: as above; assay type: cell-based, Saccharomyces cerevisiae; details: pkc1Δ/PKC1 in mixed culture, 20 hours; staurosporine 1 μM
Method: as §1, §2, §3

pac10Δ/pac10Δ strain [4] = assay type: cell-based, Saccharomyces cerevisiae; details: pac10Δ/pac10Δ in mixed culture, 20 hours; staurosporine 1 μM
pde2Δ/pde2Δ strain = experiment: Growth of individually cultured yeast strain with inhibitor (O.D.600); assay type: cell-based, Saccharomyces cerevisiae; details: pde2Δ/pde2Δ grown individually, YPD, 30° C.; staurosporine 1 μM, latrunculin B 2 μg/ml
From the text: as §1

rlm1Δ/rlm1Δ strain [5] = experiment: as above; assay type: cell-based, Saccharomyces cerevisiae; details: rlm1Δ/rlm1Δ grown individually, YPD, 30° C.; staurosporine 1 μM, caffeine 8 mM, tunicamycin 0.4 μg/ml
From the text: as §1

pac10Δ/pac10Δ strain [6] = assay type: cell-based, Saccharomyces cerevisiae; details: pac10Δ/pac10Δ grown individually, YPD, 30° C.; staurosporine 1 μM, caffeine 8 mM, latrunculin B 2 μg/ml
From the text: as §1

pdr5Δ/pdr5Δ strain [7] = assay type: cell-based, Saccharomyces cerevisiae; details: pdr5Δ/pdr5Δ grown individually, YPD, 30° C.; staurosporine 1 μM, latrunculin B 2 μg/ml
From the text: as §1

alg7Δ/ALG7 strain = assay type: cell-based, Saccharomyces cerevisiae
From the text: as §1

gim4Δ/gim4Δ strain [8] = assay type: cell-based, Saccharomyces cerevisiae; details: gim4Δ/gim4Δ grown individually, YPD, 30° C.; staurosporine 1 μM, latrunculin B 2 μg/ml
From the text: as §1

ACT1/act1Δ strain = assay type: cell-based, Saccharomyces cerevisiae; details: ACT1/act1Δ grown individually, YPD, 30° C.; staurosporine 1 μM, latrunculin B 2 μg/ml
From the text: as §1

wild-type strain = details: wild-type grown individually, YPD, 30° C.; staurosporine 1 μM
bro1Δ/bro1Δ strain = details: bro1Δ/bro1Δ grown individually, YPD, 30° C.; staurosporine 1 μM, caffeine 8 mM

SMILES: CN[C@@H]1C[C@H]2O[C@@](C)([C@@H]1OC)n1c3ccccc3c3c4c(c5c6ccccc6n2c5c31)C(=O)NC4 [staurosporine]
- decrease/reduction of strain relative to the non-treated culture (rlm1Δ/rlm1Δ strain [1]): 60%
- depletion of strain relative to the non-treated culture (pdr5Δ/pdr5Δ strain [2]): 75%
- decrease of strain relative to the non-treated culture (gim4Δ/gim4Δ strain [3]): 44%
- depletion of strain relative to the non-treated culture (act1Δ/ACT1 strain): 53%
- depletion of strain relative to the non-treated culture (pkc1Δ/PKC1 strain): 61%
- sensitivity of growth to inhibitor (arp2Δ/ARP2 strain): insensitive
- depletion of strain relative to the non-treated culture (pac10Δ/pac10Δ strain [4]): 60%
- sensitivity of growth to inhibitor (pde2Δ/pde2Δ strain): insensitive
- sensitivity of growth to inhibitor (rlm1Δ/rlm1Δ strain [5]): insensitive
- sensitivity of growth to inhibitor (pac10Δ/pac10Δ strain [6]): sensitive
- sensitivity of growth to inhibitor (pdr5Δ/pdr5Δ strain [7]): sensitive
- sensitivity of growth to inhibitor (alg7Δ/ALG7 strain): insensitive
- sensitivity of growth to inhibitor (gim4Δ/gim4Δ strain [8]): insensitive
- sensitivity of growth to inhibitor (ACT1/act1Δ strain): sensitive
- sensitivity of growth to inhibitor (wild-type strain): insensitive
- sensitivity of growth to inhibitor (bro1Δ/bro1Δ strain): insensitive
- sensitivity of growth to inhibitor (PKC1/pkc1Δ strain): sensitive
